From patent US7863242B2, “Compositions for down-regulation of CCR5 expression and methods of use thereof” (priority 2003, dated 2011)
For at least one compound, name, drawing or mass did not settle the structure.

Tested on: HIV-1 ADA
Experiment: Serial passage of HIV-1 ADA in PBMCs, emergence of T20 resistance (RT assay)
Type: cell-based
Conditions: 0.1 nM RAPA alone
Protocol: HIV-1 ADA was passaged in PBMCs 21 times in the presence of RAPA, T-20 or RAPA+T20. After every passage, virus content in the culture supernatant was measured using the RT assay.
HIV-1 replication in the presence of T20 leads to the emergence of drug resistant strains in vitro and in vivo, and this resistance is associated with mutations in the aa 36-45 of gp 41. […] To this end, HIV-1 ADA was passaged weekly for 24 weeks in the presence of RAPA, T20 and RAPA/T20 combined.

CO[C@H]1C[C@@H]2CC[C@@H](C)[C@@](O)(O2)C(=O)C(=O)N2CCCC[C@H]2C(=O)O[C@H]([C@H](C)C[C@@H]2CC[C@@H](O)[C@H](OC)C2)CC(=O)[C@H](C)/C=C(\C)[C@@H](O)[C@@H](OC)C(=O)[C@H](C)C[C@H](C)/C=C/C=C/C=C/1C [RAPA, rapamycin]
viral replication during passage: slightly reduced viral replication in some passages but not in others
